A short description of this test: qHTS Assay for Lipid Storage Modulators in Drosophila S3 Cells.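 On cell number change: cells counted by Cell Tracker Red CMTPX staining in the red channel.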 Particulars: BODIPY lipid droplet fluorescence, 18-24 h; for cell number change: measured here: cell count max response, cells fed with added oleic acid. The gist of the method: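 Drosophila S3 cells loaded with oleic acid (400 uM, as added) and compounds at several concentrations; lipid droplets imaged by 488-nm laser-scanning cytometry, 500–530 nm intensity and object ratio to cell channel. Percent activity normalized to 20 uM Triacsin C.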
For orientation: Quantitative high-throughput screening tests each substance at several concentrations.

Where [1] appears, read: measured here: lipid fluorescence (Fed channel) AC50, cells fed with added oleic acid.
The mark [2] stands for this setting: measured here: cell number channel AC50, cells fed with added oleic acid.

This is one part of the list. Further columns of the screen follow, without active or inactive calls. Compounds called inactive in the main read-out are mostly missing here. Words in brackets tell the shape of the fitted curve; partial curves, single points and poor fits give uncertain potencies.

For the compound `COCCNC(=O)C(c1ccc(C)cc1)N(C(=O)CCC(=O)Nc1ccccn1)c1ccc(F)cc1` (stereo unspecified), the cell number change is -21.1%. By AC50 is commonly meant the concentration at which the activity in the assay is half-maximal. A high value points to activity only at high concentration. With `CC(=O)O/N=C/c1c(Cl)n(C)c2ccccc12`, the cell number change came to 9.12%. Also, the AC50 under setting [1] was 0.651 µM [falling, single point].

On to `Cc1ccc(S(=O)(=O)N2CCN(C)CC2)c(C)c1N(C)S(=O)(=O)c1ccc(Cl)cc1`, for which the cell number change came to 9.44%. With `Cc1cccc(C(=O)O/N=C(\N)c2ccc(Br)cc2)c1`, the concentration at half-maximal activity (AC50) under setting [2] is 0.164 µM [rising, full curve, poor fit]. In the case of `CCn1c(SCC(=O)N(C)CC(=O)Nc2ccc(F)c(F)c2F)nnc1-c1ccco1`, the cell number change was 35.2%. Also, the AC50 under setting [2] is 13 µM [rising, partial curve, poor fit]. Also, under setting [1], the AC50 was 29.1 µM [rising, single point]. For the compound `O=C(c1cc(-c2ccc(Cl)cc2)on1)N1CCOCC1`, the cell number change is -82.7%. Further, under setting [2], the AC50 is 29.1 µM [falling, partial curve, poor fit]. Besides, the AC50 under setting [1] is 0.651 µM [falling, single point].

With `Cc1ccc(SCC(=O)OCC(=O)Nc2ccc3[nH]c(=O)[nH]c3c2)cc1C`, the cell number change was -12.4%. Moreover, the concentration at half-maximal activity (AC50) under setting [2] was 6.51 µM [falling, single point].

As for `Cc1ccc(C)c(OCc2cc(C(=O)NC(C)c3cnn(C)c3)no2)c1` (stereo unspecified), the cell number change was -2.12%. Besides, the AC50 under setting [1] is 29.1 µM [rising, single point].

On to `O=C(CN1CCCCC1)NNC(=O)c1cccc(Br)c1`, for which the cell number change is -19%.

As for `CCc1ccc(S(=O)(=O)NC(=S)Nc2ccccc2)cc1`, the cell number change was -0.993%. Consider `COC(=O)c1ccc(CSc2nnnn2-c2ccccc2)o1`, for which the cell number change was 63.2%. For the same compound, under setting [2], the half-maximal activity concentration (AC50) is 8.2 µM [rising, partial curve, poor fit]. Also, under setting [1], the AC50 is 3.66 µM [rising, full curve]. As for `COc1ccc(/C=C(/NC(=O)c2ccccc2OC)C(=O)Nc2ccc(C(=O)O)cc2)cc1`, the cell number change came out at 9.19%. Besides, under setting [1], the AC50 is 3.26 µM [falling, single point]. With `Fc1ccc(C2NC(=S)NC3=C2N2CCC3CC2)cc1` (stereo unspecified), the cell number change came out at 9%. For the same compound, the AC50 under setting [1] is 6.51 µM [falling, single point]. For the compound `COc1cc(OC)cc(C(=O)NCC(=O)Nc2ccc(-c3ccccc3)cc2)c1`, the cell number change stood at 23.9%. Under setting [1], the AC50 is 11.6 µM [falling, single point].

`C=CCn1c(=NC(=O)CC)n(C)c2ccccc21`: the cell number change was -7.46%. Also, under setting [1], the AC50 was 0.058 µM [falling, full curve]. With `Cc1csc(SCC(=O)NC2CCC(C)CC2)n1` (stereo unspecified), the AC50 under setting [1] was 0.00517 µM [rising, full curve, poor fit]. With `CCN1CCN(c2nc3ccccn3c(=O)c2C=O)CC1`, the half-maximal activity concentration (AC50) under setting [2] is 0.82 µM [rising, single point]. On to `CCN(CC)S(=O)(=O)c1ccc2oc(Nc3ccc4c(c3)OCCO4)nc2c1`, for which the AC50 runs as follows: under setting [2], 6.51 µM [rising, single point]; under setting [1], 0.58 µM [falling, single point].

For the compound `Cc1cccc(NC(=O)C2CCCN(C(=O)Nc3ccc(F)cc3)C2)c1C` (stereo unspecified), the cell number change was found to be 2.56%. In addition, under setting [1], the AC50 was 6.51 µM [rising, partial curve].

Consider `Cc1ccccc1NC(=O)c1sc2nc3c(c(-c4ccco4)c2c1N)CCCC3`, for which the cell number change was determined as 17.4%. Also, the AC50 under setting [2] was 1.03 µM [rising, partial curve, poor fit]. Besides, under setting [1], the AC50 is 3.26 µM [rising, partial curve]. Consider `CCCN(C(=O)CCOc1ccc(C(C)(C)C)cc1)c1c(N)n(Cc2ccccc2)c(=O)[nH]c1=O`, for which the cell number change was -45.2%. For the same compound, the AC50 under setting [2] was 20.6 µM [falling, single point]. Further, the AC50 under setting [1] was 10.3 µM [falling, partial curve].

As for `Cc1ccc(OCc2nc(C#N)c(N3CCN(Cc4ccccc4)CC3)o2)cc1`, under setting [1], the AC50 was 0.651 µM [rising, partial curve, poor fit]. Turning to `COc1ccc(CN(C)C(=O)Cn2ccc(N)nc2=O)cc1OC`, the cell number change was -0.323%. For the same compound, the AC50 under setting [2] was 0.366 µM [falling, partial curve]. Also, the AC50 under setting [1] was 0.366 µM [falling, partial curve]. As to `CC(C)CCC(=O)N1CCC(N2CCC(C(=O)NCc3ccccn3)CC2)CC1`, the cell number change was -10.1%.

For the compound `COc1ccc(-c2cc(C(=O)NCC3CCCO3)on2)cc1OC` (stereo unspecified), the cell number change stood at 44%. Moreover, under setting [2], the AC50 was 32.6 µM [rising, single point]. The AC50 under setting [1] was 2.06 µM [rising, partial curve, poor fit]. `O=C(NCC(c1cccnc1)N1CCOCC1)Nc1ccccc1` (stereo unspecified): the cell number change stood at 14.9%. Besides, the AC50 under setting [1] is 29.1 µM [rising, single point]. Consider `COC(=O)/C=C1\NCCSC1=O`, for which the cell number change was -31.1%. Moreover, the AC50 under setting [2] was 32.6 µM [falling, single point]. For the same compound, under setting [1], the AC50 is 25.9 µM [falling, single point]. Turning to `COc1ccc(C)cc1Nc1n[n+](-c2ccccc2)c(-c2cc(OC)c(OC)cc2Br)s1`, the cell number change is -14.1%. For the same compound, the AC50 under setting [1] is 29.1 µM [falling, single point].

On to `NC(=O)Cn1nnc(-c2ccc(CN3CCCCC3)cc2)n1`, for which the cell number change is -8.35%. Further, the concentration at half-maximal activity (AC50) under setting [1] is 0.517 µM [falling, full curve]. As to `Cc1cccc(NC(=O)c2cn(-c3ccccc3)nc2-c2ccccc2)c1`, the cell number change stood at 8.75%. Also, under setting [2], the AC50 is 0.326 µM [falling, full curve, poor fit]. Turning to `O=C1Nc2c(c(=O)[nH]c(=O)n2-c2ccccc2)C1(Nc1ncccn1)C(F)(F)F` (stereo unspecified), the cell number change is -109%. The AC50 under setting [2] is 29.1 µM [falling, partial curve, poor fit]. Under setting [1], the AC50 is 0.13 µM [falling, full curve, poor fit].

Consider `O=S(=O)(NC1c2cccc3cccc(c23)C1N1CCNCC1)c1ccccc1` (stereo unspecified), for which the cell number change was 23.4%. The concentration at half-maximal activity (AC50) under setting [1] is 32.6 µM [rising, single point]. For `CCN(CC)S(=O)(=O)c1ccc(C(=O)C(C#N)c2ccccn2)cc1` (stereo unspecified), the cell number change was -23.1%.

In the case of `O=C(COC(=O)c1cc([N+](=O)[O-])ccc1N1CCOCC1)c1ccc(OC(F)F)cc1OC(F)F`, the cell number change was 118%. Also, the AC50 under setting [2] was 14.6 µM [rising, partial curve]. With `CCN(CC(=O)Nc1ccc(NC(C)=O)cc1)C(=O)c1ccc(NC2CC2)c([N+](=O)[O-])c1`, the cell number change was -21.2%. The AC50 under setting [1] was 1.84 µM [rising, partial curve]. As for `CC(=O)c1cccc(NC(=O)c2ccc(OCc3c(C)noc3C)cc2)c1`, the cell number change came to 2.59%. Regarding `O=C(CCCN1C(=O)/C(=C/c2cccs2)SC1=S)NNC(=O)c1ccccc1O`, the AC50 under setting [1] was 5.8 µM [falling, full curve]. As to `O=C(COc1cc(F)ccc1[N+](=O)[O-])Nc1ccc(N2CCOCC2)cc1`, the cell number change was -9.37%. The AC50 under setting [2] was 0.082 µM [falling, full curve, poor fit]. In addition, the half-maximal activity concentration (AC50) under setting [1] was 0.082 µM [falling, full curve, poor fit]. On to `COc1ccccc1C(=O)NNC(=O)c1nn(Cc2ccccc2)c(=O)c2ccccc12`, for which the cell number change came to 2.57%. In the case of `CCCC(C(=O)Nc1cc(S(=O)(=O)N2CCOCC2)ccc1OC)c1ccccc1` (stereo unspecified), the cell number change is 6.04%. Under setting [1], the AC50 is 0.461 µM [rising, full curve, poor fit]. In the case of `COc1ccc(NC(=O)CN(C)CC(=O)Nc2sc3c(c2C(N)=O)CCC3)cc1`, the cell number change was 63.9%. In addition, the AC50 under setting [2] is 9.2 µM [rising, partial curve]. Consider `CSc1nc2nc(C(F)(F)F)cc(-c3ccccc3)n2n1`, for which the AC50 was 6.51 µM [rising, single point] under setting [2] and 6.51 µM [rising, single point] under setting [1]. Turning to `O=c1ccn(-c2cccc(C(F)(F)F)c2)nc1-c1ccn(-c2cccc(Cl)c2)n1`, the cell number change is -23.7%. In addition, under setting [1], the AC50 is 23.1 µM [falling, single point].

Take `COC(=O)c1ccc(CNC(=O)c2coc3ccccc3c2=O)cc1`: the AC50 under setting [1] is 6.51 µM [rising, single point]. Turning to `O=C(OCC1OC(Oc2ccc(O)cc2)C(O)C(O)C1O)c1ccccc1` (stereo unspecified), the cell number change was -38.3%. For the same compound, the concentration at half-maximal activity (AC50) under setting [2] is 1.03 µM [falling, full curve]. Moreover, the AC50 under setting [1] is 29.1 µM [falling, single point].

Take `Cc1cc(NC(=O)C(=O)NCCN2CCN(S(C)(=O)=O)CC2)ccc1Br`: the cell number change is -30.3%. The AC50 under setting [1] was 6.51 µM [rising, single point]. With `COCCCNC(=O)c1ccc2c(c1)CCN2S(C)(=O)=O`, the cell number change was determined as 1.85%. Besides, the AC50 under setting [1] is 25.9 µM [falling, single point]. Consider `O=C(Nc1ccc(F)cc1)c1cccc(N2C(=O)C3C4C=CC(C5CC45)C3C2=O)c1` (stereo unspecified), for which the cell number change was -36.2%. For the same compound, the AC50 under setting [2] was 7.31 µM [falling, partial curve, poor fit]. Also, the AC50 under setting [1] was 13 µM [falling, partial curve, poor fit].

Take `COc1ccc(NC(=O)CSc2n[nH]c(-c3ccccc3)n2)cc1S(N)(=O)=O`: the cell number change worked out at 11.3%. Also, the AC50 under setting [1] is 6.51 µM [falling, single point].

For the compound `Cn1c(Cn2nnc3ccccc32)nnc1SCC(=O)c1ccc(F)cc1`, the cell number change was determined as 34.3%. Further, under setting [2], the AC50 is 9.2 µM [rising, partial curve]. Turning to `COCCN(C(=O)CSc1nc2ccccc2c(=O)n1C(C)COC)c1c(N)n(Cc2ccccc2)c(=O)[nH]c1=O` (stereo unspecified), the cell number change was -32.5%. The AC50 under setting [2] is 0.058 µM [falling, full curve, poor fit]. The AC50 under setting [1] was 0.058 µM [falling, full curve, poor fit].

Take `COC(=O)CCN(C(=O)c1ccc(N2CCCCC2)c([N+](=O)[O-])c1)c1ccccn1`: the cell number change was -22.6%. On to `O=C(CNC(=O)c1ccc(S(=O)(=O)N2CCCC2)cc1)N/N=C/c1ccc(F)cc1`, for which the cell number change came out at 31.7%. Also, under setting [2], the AC50 was 4.11 µM [rising, partial curve]. The AC50 under setting [1] was 2.91 µM [rising, single point]. Turning to `COc1cccc(-c2nc(CS(=O)(=O)CC(=O)NCc3ccc(Cl)cc3)c(C)o2)c1`, the cell number change was -23.6%. Under setting [1], the AC50 is 29.1 µM [falling, single point]. In the case of `CC(NC(=O)c1cccc(S(=O)(=O)N(C)C)c1)C1CC2CCC1C2` (stereo unspecified), the AC50 under setting [1] was 0.00461 µM [falling, full curve, poor fit]. Turning to `O=C(NCCCc1ccccc1)c1cccc(S(=O)(=O)N2CCOCC2)c1`, the cell number change turned out to be 3.88%. Besides, the concentration at half-maximal activity (AC50) under setting [2] is 6.51 µM [falling, single point]. For the same compound, under setting [1], the AC50 is 6.51 µM [falling, single point].

Source of the values: PubChem BioAssay AID2685 (National Center for Advancing Translational Sciences (NCATS), 2010).
